Reference: paper PMC8639466
No constants are given. Whether binding was seen depends on the method and setting. For some of these results: Binding seen in cells or lysates may run through a third protein. Some binding calls cover weakened binding; strength is not graded here.

The chains behind the UniProt entries cited, without tags or fusion partners. Where a name states a change or a piece, a line headed by the entry shows the natural chain unless it says otherwise. Residues count along the entry.
UniProt Q08945: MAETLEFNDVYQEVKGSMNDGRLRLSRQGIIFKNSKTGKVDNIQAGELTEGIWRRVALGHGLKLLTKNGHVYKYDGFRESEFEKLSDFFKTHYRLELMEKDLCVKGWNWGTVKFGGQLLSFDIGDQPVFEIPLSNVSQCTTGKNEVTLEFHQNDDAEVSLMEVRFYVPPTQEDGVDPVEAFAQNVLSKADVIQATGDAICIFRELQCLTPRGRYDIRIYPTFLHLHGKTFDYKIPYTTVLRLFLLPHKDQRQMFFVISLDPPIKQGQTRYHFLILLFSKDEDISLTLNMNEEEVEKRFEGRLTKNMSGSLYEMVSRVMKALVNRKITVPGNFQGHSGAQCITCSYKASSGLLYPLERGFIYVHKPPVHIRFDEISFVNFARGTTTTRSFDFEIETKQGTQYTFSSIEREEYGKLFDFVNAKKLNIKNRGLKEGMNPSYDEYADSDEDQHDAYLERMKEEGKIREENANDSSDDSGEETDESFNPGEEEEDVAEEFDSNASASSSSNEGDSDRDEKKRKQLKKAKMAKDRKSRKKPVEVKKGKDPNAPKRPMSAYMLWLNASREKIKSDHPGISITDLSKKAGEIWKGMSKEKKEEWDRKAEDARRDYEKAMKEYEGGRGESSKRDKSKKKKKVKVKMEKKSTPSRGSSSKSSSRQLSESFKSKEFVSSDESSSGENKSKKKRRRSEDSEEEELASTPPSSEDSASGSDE
flag-hSSRP1-PH3/4 (Gly196-Leu430 as printed): residues 196-430 of Q08945
flag-hSSRP1 C-terminal disordered region (Gly617-Glu709): residues 617-709 of Q08945
UniProt P68400: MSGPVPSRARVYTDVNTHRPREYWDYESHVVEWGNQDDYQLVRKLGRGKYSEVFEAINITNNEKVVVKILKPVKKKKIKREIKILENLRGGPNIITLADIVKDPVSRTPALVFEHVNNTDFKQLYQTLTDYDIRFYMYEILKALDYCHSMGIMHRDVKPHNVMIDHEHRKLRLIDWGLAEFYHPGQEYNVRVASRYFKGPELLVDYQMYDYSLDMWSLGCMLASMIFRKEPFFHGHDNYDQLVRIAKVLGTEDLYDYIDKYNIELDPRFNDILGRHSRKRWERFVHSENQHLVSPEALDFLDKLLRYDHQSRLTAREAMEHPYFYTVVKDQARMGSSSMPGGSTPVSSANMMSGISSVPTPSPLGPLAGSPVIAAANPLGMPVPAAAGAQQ

Key:
[1] = molecular target: flag-hSSRP1, wild type, full length (human) (UniProt Q08945); test: co-IP; flag-hSSRP1 constructs transfected into HeLa cells; extract supernatant on Flag magnetic beads overnight at 4 °C; Western blot
[2] = molecular target: flag-hSSRP1-PH3/4 (Gly196-Leu430 as printed) (human) (UniProt Q08945); test: as above
[3] = molecular target: flag-hSSRP1 C-terminal disordered region (Gly617-Glu709) (human) (UniProt Q08945); test: as above
[4] = molecular target: hSSRP1-HMG546-616 (Homo sapiens, UniProt Q08945 546-616); test: SEC; molecular weight calibration of the single protein in solution; both purified

| binding [1] | binding [2] | binding [3] | binding [4] | Substance |
| --- | --- | --- | --- | --- |
| binds | binds | binds |  | casein kinase II (CK2) (from UniProt P68400 1-391; P67870 1-215) (complex) |
|  |  |  | no binding | hSSRP1-HMG 546-616 (from UniProt Q08945 546-616) (domain or fragment) |
